PMC9481931
These are yes or no findings as the source states them, for the method shown. In cells and extracts the contact can be indirect. Some results given as binding are weak or reduced against the parent protein; the word gives no strength.

Protein sequences, listed by entry. Tags and fused reporters are not part of them.
UniProt A1ZAW0: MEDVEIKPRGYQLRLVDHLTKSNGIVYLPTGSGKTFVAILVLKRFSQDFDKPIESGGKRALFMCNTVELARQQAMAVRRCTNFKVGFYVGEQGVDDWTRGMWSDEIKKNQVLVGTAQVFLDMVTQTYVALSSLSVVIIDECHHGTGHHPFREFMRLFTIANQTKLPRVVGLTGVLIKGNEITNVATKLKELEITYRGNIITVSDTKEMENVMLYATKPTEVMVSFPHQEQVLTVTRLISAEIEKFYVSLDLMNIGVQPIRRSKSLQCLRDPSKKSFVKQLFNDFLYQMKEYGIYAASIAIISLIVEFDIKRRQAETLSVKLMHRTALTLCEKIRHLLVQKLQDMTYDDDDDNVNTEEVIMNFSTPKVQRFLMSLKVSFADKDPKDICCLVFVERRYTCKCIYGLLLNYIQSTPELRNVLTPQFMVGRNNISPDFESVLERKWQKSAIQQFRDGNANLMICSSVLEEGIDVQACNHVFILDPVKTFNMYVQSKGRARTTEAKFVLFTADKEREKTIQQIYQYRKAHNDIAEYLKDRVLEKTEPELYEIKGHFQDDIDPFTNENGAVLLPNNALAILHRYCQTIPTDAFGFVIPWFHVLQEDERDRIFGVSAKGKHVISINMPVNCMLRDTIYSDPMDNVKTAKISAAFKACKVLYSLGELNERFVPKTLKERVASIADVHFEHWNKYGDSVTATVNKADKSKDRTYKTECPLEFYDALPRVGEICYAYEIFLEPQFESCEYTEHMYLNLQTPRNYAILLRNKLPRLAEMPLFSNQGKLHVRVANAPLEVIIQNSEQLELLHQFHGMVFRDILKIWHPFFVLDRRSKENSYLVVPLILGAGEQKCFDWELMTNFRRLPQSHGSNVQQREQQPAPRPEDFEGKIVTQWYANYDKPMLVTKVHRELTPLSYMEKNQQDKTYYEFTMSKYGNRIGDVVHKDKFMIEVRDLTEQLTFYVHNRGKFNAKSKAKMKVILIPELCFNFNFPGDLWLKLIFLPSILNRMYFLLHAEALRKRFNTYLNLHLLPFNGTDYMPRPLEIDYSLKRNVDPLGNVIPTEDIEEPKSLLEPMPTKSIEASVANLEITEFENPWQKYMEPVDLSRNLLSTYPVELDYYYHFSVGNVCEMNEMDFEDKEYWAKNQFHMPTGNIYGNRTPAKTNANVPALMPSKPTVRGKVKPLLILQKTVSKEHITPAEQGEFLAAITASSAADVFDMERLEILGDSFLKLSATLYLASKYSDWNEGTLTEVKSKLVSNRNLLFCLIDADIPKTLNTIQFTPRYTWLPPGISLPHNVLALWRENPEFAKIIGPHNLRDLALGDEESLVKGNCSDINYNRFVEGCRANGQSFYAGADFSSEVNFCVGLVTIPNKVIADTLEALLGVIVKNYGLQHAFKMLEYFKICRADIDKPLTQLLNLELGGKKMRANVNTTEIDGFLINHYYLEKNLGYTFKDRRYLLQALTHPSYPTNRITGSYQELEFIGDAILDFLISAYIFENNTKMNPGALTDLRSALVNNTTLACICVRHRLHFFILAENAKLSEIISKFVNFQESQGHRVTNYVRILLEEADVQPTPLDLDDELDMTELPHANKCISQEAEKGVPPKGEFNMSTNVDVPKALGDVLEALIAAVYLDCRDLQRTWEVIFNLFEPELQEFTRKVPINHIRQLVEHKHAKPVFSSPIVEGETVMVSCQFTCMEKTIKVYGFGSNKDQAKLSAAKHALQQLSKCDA

T1: Ataxin-2 (Drosophila melanogaster (endogenous in embryo extracts)) (UniProt Q8SWR8)
T1 sequence: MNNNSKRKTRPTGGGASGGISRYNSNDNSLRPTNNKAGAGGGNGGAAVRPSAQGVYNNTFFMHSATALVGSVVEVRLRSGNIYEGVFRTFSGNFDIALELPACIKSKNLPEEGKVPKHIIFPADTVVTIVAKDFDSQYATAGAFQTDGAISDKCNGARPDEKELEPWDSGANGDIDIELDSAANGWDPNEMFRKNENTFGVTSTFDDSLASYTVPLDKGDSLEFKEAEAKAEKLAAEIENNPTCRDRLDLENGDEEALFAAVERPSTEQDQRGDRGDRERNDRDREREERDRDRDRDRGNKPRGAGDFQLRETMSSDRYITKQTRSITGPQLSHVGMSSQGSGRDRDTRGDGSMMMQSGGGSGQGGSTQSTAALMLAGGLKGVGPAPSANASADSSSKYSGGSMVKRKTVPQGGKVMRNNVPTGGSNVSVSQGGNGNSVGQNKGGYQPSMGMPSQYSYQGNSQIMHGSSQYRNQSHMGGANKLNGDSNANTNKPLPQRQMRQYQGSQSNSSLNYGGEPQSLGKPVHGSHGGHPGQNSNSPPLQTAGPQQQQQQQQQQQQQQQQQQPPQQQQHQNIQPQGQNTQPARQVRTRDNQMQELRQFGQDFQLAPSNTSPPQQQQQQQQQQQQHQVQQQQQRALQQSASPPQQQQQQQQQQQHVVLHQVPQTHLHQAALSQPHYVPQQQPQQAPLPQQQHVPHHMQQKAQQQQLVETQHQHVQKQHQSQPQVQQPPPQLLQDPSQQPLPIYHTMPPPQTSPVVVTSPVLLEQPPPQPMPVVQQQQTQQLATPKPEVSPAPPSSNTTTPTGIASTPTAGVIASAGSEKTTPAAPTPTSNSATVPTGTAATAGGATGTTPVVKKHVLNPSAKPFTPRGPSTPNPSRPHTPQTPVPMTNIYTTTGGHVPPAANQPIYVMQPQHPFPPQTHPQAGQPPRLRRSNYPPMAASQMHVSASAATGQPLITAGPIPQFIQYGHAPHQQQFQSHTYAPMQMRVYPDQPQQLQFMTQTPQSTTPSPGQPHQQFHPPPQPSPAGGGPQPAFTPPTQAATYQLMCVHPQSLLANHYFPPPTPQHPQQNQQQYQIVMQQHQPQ

B1: Ataxin-2 (protein, UniProt Q8SWR8 1-1084)
chain: T1 sequence
B2: Wispy (enzyme, UniProt Q9VYS4 1-1373)
chain: MFSTRISGDMKIFAADVAESSVTATCNTSVQQQQSQQLEFRTRMSAGSPSSKSGQCHLKFGKYNNKTANLLRQVNSCHSSNSSSNTSNNNNEAIKGQQQQPLHYCNSNNSHSWARKKYFGNGNSNNSLLQQQQQPSSFFQRQQQQHQMQMQQEKQATNNNDALMKNQNVVNAHVSDCKSSDSNNNSTSSSNNNSTISSNNNNTSSASNNNTGSSSSCSNRTKPAKWLNENSSSSSSSNNNNISCRNNNTSSIDTKRRNSSAGATAAYYRKSESESGSSEGAAESTETEATRTGGCNSNRTAESSSADGGTQATMGKSQDQEQDQTVKQRPRQQPLSFWKTNYPQTSATQLKDKETVAAVVSAAAVAAAAAAASASEQQQQQQSLSIEHRRNSGYQQHQQHNYYPYYYSQPKQLTIASFLQKEMLPDSTEKSSSNTGGSNMIRSSSNGNSNFSRHQYGHQSTGSGYQQQQQRYRNAQNVYQQYQHQQQHHAQQHTHPHFRRKHSDNGSGINKKMHYSPPGKSGDPADRSASGQQQHHHPHQQQKTIEILASSHFNAMHRRMQGGNNKNGYYQHSYNPMTGEVGSTPTRSEHQNIYNLTYIHVDTEATGEAASAAGSTPVVKPSLLSKPNISITPASSTTPTTVDRALLPAVRSVSAPASGSALPAPANHVRNMFPPPPLAMLGGHGLLSPVTTTTPTKMISCAQLDEAITAAAASGDKLSTSPSYNQAGHYIMPPQQQQQQQLSSHPIPTGTSSHPPPPPPPHMFFHFADGFCNPGQGHQAPPATMWPHSSSPCYPASYGSSCGSGTGAGTSPHNNDGNAGALRPASPALSSSSLGSESQWSGTSNRSRLGHNGHPSISPTPSALGSAQLSPHLAEMRVQHPLHQQHPPSHASHRPHGQMGGHAMSSYVPHRPPPPPHPSISSPNPTPVATGAGGPWYEMILPPDRYLAQARNIEVTVQPEKLICMCKYDNLSAEIWKRFRGAQQTHNKFKLKMRLWRYLYLWMHQPMFERYRICLVGSTITGFGTDSSDIDMCLLPEQGVHPHQHQYHQHHHFHNEKRTEALIILTLFNAVLKDTEVFQDFNLIEARVPILRFKDISNGIEVDLNFNNCVGIKNTYLLQLYAQMDWRTRPLVVIVKLWAQYHDINDAKRMTISSYSLVLMVLHYLQHACVPHVLPCLHSLYPEKFQLGQQDCLDLDLIEPIEPYQALNTQTLGEHLLGFFKYYSTFDFRNFAISIRTGGVLPVSTCRMAKSPKNDVYQWKELNIEEPFDLSNTARSVYDGPTFERVKAVFLISARRLDHTLDLATIFRPIHHVPEHFPQLQQHQQQFEQQLHHPISGQQRSAGGGGDGANPVPSTLNPDAASTFAETTAAHVA

Key:
[1] = target: T1, Ataxin-2 (Drosophila melanogaster (endogenous in embryo extracts)); test: co-IP; small-scale IP with 2 ul Atx2 serum on Protein-A Dynabeads, 700 ug embryo extract (wild type and Dicer-2 null), performed as in Fig 3D (RNases); Western blot; interactions with Wispy and Tyf fully preserved in Dicer-2 null extracts (Fig 3E)
[2] = target: Dicer-2 (Drosophila melanogaster (endogenous in embryo extracts)) (UniProt A1ZAW0); test: co-IP; small-scale IP, 5 ug affinity-purified anti-Dicer-2 antibody on Protein-A Dynabeads, 700 ug wild-type embryo extract, 25°C 1 h, washes in 1x NET (150 mM NaCl, 0.1% NP-40); with or without RNase I + RNase A; Western blot; IgG control (Fig 3B, 3D)

Molecule | binding [1] | binding [2]
Dicer-2 (from UniProt A1ZAW0 1-1722) (enzyme) | binds | –
B1 | – | binds
B2 | binds | –
